Experiment: general procedure: Fmoc solid-phase peptide synthesis; Fmoc-Rink resin (4-(2',4'-dimethoxyphenyl-Fmoc-aminomethyl)-phenoxypolystyrene resin, Bachem D-2080; 0.47 mmol/g); HOBt ester (HOAt with DIPEA for Fmoc-Glu(2-phenylisopropyloxy)-OH)
Settings: whole synthesis, hydrochloride

With “16-(tetrazol-5-yl)hexadecanoyl-Gly-Thr-Gln-His-Ser-NIe-c[Glu-Hyp-D-Phe-Arg-Trp-Lys]-NH2” the “final HPLC purity” value (UV 214 nm, scale of the general procedure 0.10 mmol) was 100% purity, the isolated mass (scale 0.10 mmol) was 27.8 mg and the isolated yield (scale 0.10 mmol) was 16% yield.

Source: US20090203581 (published 2009)
